Reference: article PMC12029333

B1: Laccase (protein, UniProt P07788 1-513)
chain: MTLEKFVDALPIPDTLKPVQQSKEKTYYEVTMEECTHQLHRDLPPTRLWGYNGLFPGPTIEVKRNENVYVKWMNNLPSTHFLPIDHTIHHSDSQHEEPEVKTVVHLHGGVTPDDSDGYPEAWFSKDFEQTGPYFKREVYHYPNQQRGAILWYHDHAMALTRLNVYAGLVGAYIIHDPKEKRLKLPSDEYDVPLLITDRTINEDGSLFYPSAPENPSPSLPNPSIVPAFCGETILVNGKVWPYLEVEPRKYRFRVINASNTRTYNLSLDNGGDFIQIGSDGGLLPRSVKLNSFSLAPAERYDIIIDFTAYEGESIILANSAGCGGDVNPETDANIMQFRVTKPLAQKDESRKPKYLASYPSVQHERIQNIRTLKLAGTQDEYGRPVLLLNNKRWHDPVTETPKVGTTEIWSIINPTRGTHPIHLHLVSFRVLDRRPFDIARYQESGELSYTGPAVPPPPSEKGWKDTIQAHAGEVLRIAATFGPYSGRYVWHCHILEHEDYDMMRPMDITDPHK
B2: ESX secretion system protein YukB (protein, UniProt C0SPA7 1-1495)
chain: MSLLWVFYQNNVQKLNLSNLPSSHPVTIGPDVKDSVTISTIPFNSGVISLKRKESGGQYEVFLGNDCLGTIETDISFTLQTDQQDIRLILTGSEPEKSVYFTGNRDEIVCSSEKTNADIYLNPQDFAFAEQSTFSLLRAGGSWSVRPESGTIFLNGEKINANTPLKPGDEIFWNFTQMRVTEQDLLEIVHYAQFETALTETVKPSTEMQKKYPQYRRTPRMVYDLPDDRVSFSFPSQESDQTNRGLWLVILPPLVMLIVMGVVAIIQPRGIFILVSLAMFMMTLITSTVQYFRDKNQRKKREEKRERVYKLYLDNKRKELQALAEKQKQVLEFHFPSFEQMKYLTSEISDRIWEKSLESKDYLQLRLGTGTVPSSYEINMSGGDLANRDIDDLMEKSQHMQRVYKDIRNAPVTVDLAEGPMGLVGKSQIVKNEIHQLIGQLSFFNSYHDLRFVFIFHEEEYKDWEWMKWLPQFQMPHIYAKGFIYNEQTRDQLLSSLYELIRERDLEDDKEKLQFKPHFVFVITNQQLISEHVILEYLEGQHEHLGISTIVAAETKESLSENITTLVRYINEHEGDILIQKKKAVRIPFRLDHHQREDNERFSRTLRTLNHQVGITNSIPETVSFLELFHAKEVKEIGIQQRWLTSESSKSLSVPIGYKGKDDIVYLNLHEKAHGPHGLLAGTTGSGKSEFLQTYILSLAVHFHPHEAAFLLIDYKGGGMAQPFRNIPHLLGTITNIEGSKNFSMRALASIKSELKKRQRLFDQYQVNHINDYTKLYKQGKAEVAMPHLFLISDEFAELKSEEPDFIRELVSAARIGRSLGVHLILATQKPGGIIDDQIWSNSRFKVALKVQDATDSKEILKNSDAANITVTGRGYLQVGNNEVYELFQSAWSGAPYLEEVYGTEDEIAIVTDTGLIPLSEVDTEDNAKKDVQTEIEAVVDEIERIQDEMGIEKLPSPWLPPLAERIPRTLFPSNEKDHFHFAYVDEPDLQRQAPIAYKMMEDGNIGIFGSSGYGKSIAAATFLMSFADVYTPEELHVYIFDFGNGTLLPLAKLPHTADYFLMDQSRKIEKFMIRIKEEIDRRKRLFREKEISHIKMYNALSEEELPFIFITIDNFDIVKDEMHELESEFVQLSRDGQSLGIYFMLTATRVNAVRQSLLNNLKTKIVHYLMDQSEGYSIYGRPKFNLEPIPGRVIIQKEELYFAQMFLPVDADDDIGMFNELKSDVQKLQGRFASMEQPAPIPMLPESLSTRELSIRFKLERKPLSVPIGLHEETVSPVYFDLGKHKHCLILGQTQRGKTNVLKVMLEHLIDDETEMIGLFDSIDRGLSHYAKESDVSYLETKEDIEQWIETAEDIFKTREAMYVEAVRQGDAQNLRFSQVVLMIDGITRFQQTIDTRIQDRLANFMKSYAHLGFSFIPGGNHSEFSKGYDSLTTEMKQIRHAILLMKKSEQNVIPLPYQRQEPEIQPGFGYVVENGKEQKVQIPLCSAERESAR
B3: NADH dehydrogenase-like protein YumB (protein, UniProt O05267 1-406)
chain: MALNKPKIVILGAGYGGLMTVTRLTKYVGPNDADITLVNKHNYHYETTWMHEASAGTLHHDRCRYQIKDVINQSRVNFVQDTVKAIKIDEKKVVLANGELQYDYLVIGLGAVPETFGIKGLKEYAFPIANINTSRLLREHIELQFATYNTEAEKRPDRLTIVVGGAGFTGIEFLGELAARVPELCKEYDVDRSLVRIICVEAAPTVLPGFDPELVDYAVHYLEENGVEFKIGTAVQECTPEGVRVGKKDEEPEQIKSQTVVWAAGVRGHPIVEEAGFENMRGRVKVNPDLRAPGHDNVFILGDSSLFMNEDTERPYPPTAQIAMQQGITVAKNLGRLIKGGELEEFKPDIKGTVASLGEHNAVGVVYGRKLKGTPASFMKKVIDNRSLFMIGGLGLTLKKGKFKFF
B4: HTH-type transcriptional repressor NagR (protein, UniProt O34817 1-243)
chain: MNINKQSPIPIYYQIMEQLKTQIKNGELQPDMPLPSEREYAEQFGISRMTVRQALSNLVNEGLLYRLKGRGTFVSKPKMEQALQGLTSFTEDMKSRGMTPGSRLIDYQLIDSTEELAAILGCGHPSSIHKITRVRLANDIPMAIESSHIPFELAGELNESHFQSSIYDHIERYNSIPISRAKQELEPSAATTEEANILGIQKGAPVLLIKRTTYLQNGTAFEHAKSVYRGDRYTFVHYMDRLS
B5: Putative NAD(P)H-dependent FMN-containing oxidoreductase YwqN (protein, UniProt P96726 1-181)
chain: MKIAVINGGTRSGGNTDVLAEKAVQGFDAEHIYLQKYPIQPIEDLRHAQGGFRPVQDDYDSIIERILQCHILIFATPIYWFGMSGTLKLFIDRWSQTLRDPRFPDFKQQMSVKQAYVIAVGGDNPKIKGLPLIQQFEHIFHFMGMSFKGYVLGEGNRPGDILRDHQALSAASRLLKRSDAI
B6: Toxin YxiD (protein, UniProt P42296 1-569)
chain: MKTLDVHALHEGIQHTIEKLDKQKQQLEKLEKSVEHLAGMKDALKGKGGDAIRTFYEECHKPFLLFFGIFIDEYKKVLKQTQHAISSVESNSHGMIAEAFLSHDARHGVKHAREVTEQLTDAVNRQTSAIDHIVSLPTVNDSFFRMETEQAERLISDTLNKLFQFDGQQTQALEAAKSDFQTMKKYIDQLETMYTGPKIEITGYKSGSILKSQEEENINQIFGAINPQMKQADDSPMEMMLKKLAENEKSKVDSVVKTGDSKKVSKNIIVINGKVYNTSEHREHIKTDFSNAEVKQVVYNDTLYNVYISGNDMKLEPVVSLSDIKVDENGYVKILETAVELTGVYDLFKAATGRDPVSGEKVTGKDRVVASINSVPFAKIAKLEKLIDINKLINNGKKAKKASEVKNVAKDKGKIANDVSGSANKINSDLIKKYARDIEQRTGRELPKNQIDKLKEALRNKEYKKMSPIETAKHRTKFDKVKNKVIKEWEENTGQKWPVYKENVVSEKTGKIIRKKGDKYDAHHIIENTFGGEHEWWNMHPAKFPNEHQAGIHGTGSPANELFKGGKKK
B7: Uncharacterized protein YxiG (protein, UniProt P42299 1-138)
chain: MTMYQTINEWVDYIDKGCSVLHLDFNVFKKELSLDIKVFEDEGEYTHKISFQNVASAYYSADVGDMRLEKIDPEEYNWQVFEMSYHPEGIGNLSNSIIPEYQSNANFLIDMNRMLIAIEAETVRFDDQSFYAYQLNTK
B8: Sensor histidine kinase YxjM (protein, UniProt P55183 1-406)
chain: MNGQTPARHYYKKLVPSLILILNCIQFLSHPTKADPILLAFVFAVYLAFIWIIPYVASTAVSLSIFIGLWLLTDFFWAVSGQEQGAAYFLIVFLMIYAAFRLPSRLSLIFTACLIGGNILLLSSQGGSLNTIISNISIMLGLYVLFSSMRFRREARREAERNHAELAKMHVQLEHAHKELQKAHAELQEASVLSLRYAVLEERTRIARDIHDSIGHELTSVIVQLQSLPYILKSSKEDSEKVIQNVLSVARECLQEVRSVVHQMGRSESMVGLTALRGLIHQVEERSGLHVSLDTAGLSEESWPPNVSETIYRILQEALTNIIRHADASHAAAVISNDKSHLYVTITDDGQFTGSLTYGFGLTGMKERAEKAGGSLTFSAVQPSGLKIELSLPLMTTNKEQKDEQR
B9: Uncharacterized transporter YxxF (protein, UniProt Q07835 1-311)
chain: MQQDPSISSKQKSTAVIKMVISMVIFGSIGFFSEHTNLPSFELVFVRCLCATLFLGFCWLASGQYKTEKWSKRDVLQTLACGFFLVFNWVFLFKSFEETSVTIAISVYHLAPVLVLLLGSFFYREKLNVISVSSIIICFLGTALISGINGSTSLTQLMGSGIIWAVLAALFYAFTTLLGKGIHNLSPYTTTFLQTGLGVIILIPFIHFGAFADLSQGNWIMVVSTGIIHTGIVYLLFFDSLRFLSTKFISIIVFLDPAVAIVLDTVFTGFRPDLYQTLGIVMIFAGMALTLVRRQGKANVTAEGTDIEQIQ
B10: Exodeoxyribonuclease YycJ (protein, UniProt C0SP91 1-264)
chain: MSLQFSVLASGSTGNAFYLETEDHAFLVDAGLSGKAMDGLMAQIGRKLDDVDGIFVTHEHSDHIKGLGVVARKYKLPIYANEKTWKAMENQIGKIDTDQKFVFPMETVKSFGGLDVESFGVSHDAAEPMFYVFHYSGRKLALMTDTGYVSDRMKGIIRSANVFVFESNHDVGMLQMGRYPWSIKRRILSDVGHVSNEDAALAMTDVIGDETSRIYLAHLSQDNNMKELARMSVQQTLASKGFVTGETFDLYDTDPKKATPLCAV
B11: Spore coat protein I (protein, UniProt O34656 1-357)
chain: MCPLMAENHEVIEEGNSSELPLSAEDAKKLTELAENVLQGWDVQAEKIDVIQGNQMALVWKVHTDSGAVCLKRIHRPEKKALFSIFAQDYLAKKGMNVPGILPNKKGSLYSKHGSFLFVVYDWIEGRPFELTVKQDLEFIMKGLADFHTASVGYQPPNGVPIFTKLGRWPNHYTKRCKQMETWKLMAEAEKEDPFSQLYLQEIDGFIEDGLRIKDRLLQSTYVPWTEQLKKSPNLCHQDYGTGNTLLGENEQIWVIDLDTVSFDLPIRDLRKMIIPLLDTTGVWDDETFNVMLNAYESRAPLTEEQKQVMFIDMLFPYELYDVIREKYVRKSALPKEELESAFEYERIKANALRQLI

molecular target: T1, GST-PrkC (Serine/threonine-protein kinase PrkC) (Bacillus subtilis str. 168) (UniProt O34507); test: affinity purification with mass spectrometry; GST-PrkC on glutathione resin incubated with B. subtilis spore lysate at 4 °C; resin washed; bound proteins eluted with 20 mM reduced glutathione; eluate digested with trypsin and analysed by LC-MS/MS; hits filtered at 1% FDR, >=2 unique peptides; only the target purified
T1 sequence: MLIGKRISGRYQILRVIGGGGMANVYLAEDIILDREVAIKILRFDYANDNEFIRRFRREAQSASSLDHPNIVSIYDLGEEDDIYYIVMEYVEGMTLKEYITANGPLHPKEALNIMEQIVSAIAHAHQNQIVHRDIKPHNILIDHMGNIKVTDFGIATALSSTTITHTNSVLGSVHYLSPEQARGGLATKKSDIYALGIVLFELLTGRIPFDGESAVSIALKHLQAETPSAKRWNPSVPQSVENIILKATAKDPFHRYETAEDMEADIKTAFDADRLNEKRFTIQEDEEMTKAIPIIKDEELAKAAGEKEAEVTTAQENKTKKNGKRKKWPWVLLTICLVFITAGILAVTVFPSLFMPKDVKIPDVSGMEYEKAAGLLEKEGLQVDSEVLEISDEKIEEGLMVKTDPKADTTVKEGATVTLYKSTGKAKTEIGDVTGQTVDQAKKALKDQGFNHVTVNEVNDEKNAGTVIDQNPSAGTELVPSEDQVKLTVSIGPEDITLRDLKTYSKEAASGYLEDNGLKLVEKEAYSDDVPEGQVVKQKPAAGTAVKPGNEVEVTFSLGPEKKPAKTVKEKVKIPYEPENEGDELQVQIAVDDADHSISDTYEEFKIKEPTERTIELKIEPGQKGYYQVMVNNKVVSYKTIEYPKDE

Row | Binder | binding
1 | B1 | binds
2 | B2 | binds
3 | B3 | binds
4 | B4 | binds
5 | B5 | binds
6 | B6 | binds
7 | B7 | binds
8 | B8 | binds
9 | B9 | binds
10 | B10 | binds
11 | B11 | binds

No constants are given. Whether binding was seen depends on the method and setting. In cells and extracts the contact can be indirect. These calls come from enrichment with a bait or labelling near it, and not all partners need be listed. Tags and fused reporters may be left off the sequences shown.
